Experimental data reported in the supplement of paper PMC6411743.
± gives the standard deviation of the averaged measurements. The entries are a selection whose mix differs from that of the whole data set. Most values lie at the level of the controls, where differences are scatter.

Amino acid sequences for entries named in this document (tags omitted). A change or cut given only in a name is not applied to a line headed by its entry.
UniProt Q9UJX3, whole entry: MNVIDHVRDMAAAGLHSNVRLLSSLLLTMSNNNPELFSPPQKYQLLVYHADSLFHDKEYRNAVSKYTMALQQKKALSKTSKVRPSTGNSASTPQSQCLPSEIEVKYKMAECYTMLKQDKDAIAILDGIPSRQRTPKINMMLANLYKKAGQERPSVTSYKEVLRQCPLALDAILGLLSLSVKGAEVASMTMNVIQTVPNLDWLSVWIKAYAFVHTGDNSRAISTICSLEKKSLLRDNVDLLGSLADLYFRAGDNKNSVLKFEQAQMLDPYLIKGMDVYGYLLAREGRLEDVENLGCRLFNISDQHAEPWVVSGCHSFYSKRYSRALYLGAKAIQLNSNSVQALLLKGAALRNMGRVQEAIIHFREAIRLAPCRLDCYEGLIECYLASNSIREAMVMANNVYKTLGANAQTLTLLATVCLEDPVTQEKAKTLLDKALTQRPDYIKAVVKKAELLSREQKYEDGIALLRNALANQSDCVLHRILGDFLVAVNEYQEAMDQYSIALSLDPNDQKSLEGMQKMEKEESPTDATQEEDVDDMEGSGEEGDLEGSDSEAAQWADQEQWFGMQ
UniProt Q9UH03, whole entry: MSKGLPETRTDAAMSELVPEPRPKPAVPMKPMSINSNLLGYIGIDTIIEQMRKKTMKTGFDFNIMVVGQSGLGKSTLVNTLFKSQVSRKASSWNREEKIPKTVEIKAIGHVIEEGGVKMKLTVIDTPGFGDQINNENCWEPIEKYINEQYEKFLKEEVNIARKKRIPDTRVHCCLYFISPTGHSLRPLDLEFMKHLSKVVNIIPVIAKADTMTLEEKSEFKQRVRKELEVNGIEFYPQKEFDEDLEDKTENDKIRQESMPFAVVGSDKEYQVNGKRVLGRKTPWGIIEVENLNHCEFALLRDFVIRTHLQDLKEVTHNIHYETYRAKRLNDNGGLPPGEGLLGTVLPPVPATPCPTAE
UniProt Q9UJY4: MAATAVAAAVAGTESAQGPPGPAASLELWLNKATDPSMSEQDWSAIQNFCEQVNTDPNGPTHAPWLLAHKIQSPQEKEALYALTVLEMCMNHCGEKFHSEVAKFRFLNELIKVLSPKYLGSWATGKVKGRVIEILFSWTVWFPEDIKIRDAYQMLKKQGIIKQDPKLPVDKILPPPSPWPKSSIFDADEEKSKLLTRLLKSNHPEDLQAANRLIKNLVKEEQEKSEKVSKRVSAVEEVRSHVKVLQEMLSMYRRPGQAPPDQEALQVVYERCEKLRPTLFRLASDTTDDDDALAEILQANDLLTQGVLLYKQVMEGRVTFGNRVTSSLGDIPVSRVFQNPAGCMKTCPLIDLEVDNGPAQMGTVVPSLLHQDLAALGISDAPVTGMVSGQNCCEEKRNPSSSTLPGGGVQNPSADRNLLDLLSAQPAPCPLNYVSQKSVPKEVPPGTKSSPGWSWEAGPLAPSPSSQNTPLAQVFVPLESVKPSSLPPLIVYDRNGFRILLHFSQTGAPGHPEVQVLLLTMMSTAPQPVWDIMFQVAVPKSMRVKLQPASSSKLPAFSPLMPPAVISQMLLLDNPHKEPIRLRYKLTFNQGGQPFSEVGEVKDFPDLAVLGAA
UniProt Q9UBK7: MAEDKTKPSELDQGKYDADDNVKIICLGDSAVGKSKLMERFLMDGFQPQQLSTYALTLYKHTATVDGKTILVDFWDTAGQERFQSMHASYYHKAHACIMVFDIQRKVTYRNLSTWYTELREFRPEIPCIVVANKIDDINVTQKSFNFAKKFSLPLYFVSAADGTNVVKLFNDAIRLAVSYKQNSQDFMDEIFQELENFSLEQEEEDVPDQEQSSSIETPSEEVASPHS
UniProt Q9UNT1: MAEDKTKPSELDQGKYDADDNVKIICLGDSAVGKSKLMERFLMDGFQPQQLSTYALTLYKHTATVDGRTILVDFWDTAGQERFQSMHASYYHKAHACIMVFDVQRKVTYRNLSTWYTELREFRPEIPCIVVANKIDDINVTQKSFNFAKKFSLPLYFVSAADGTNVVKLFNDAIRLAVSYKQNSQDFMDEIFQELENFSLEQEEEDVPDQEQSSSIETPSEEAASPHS
UniProt Q9UKJ3: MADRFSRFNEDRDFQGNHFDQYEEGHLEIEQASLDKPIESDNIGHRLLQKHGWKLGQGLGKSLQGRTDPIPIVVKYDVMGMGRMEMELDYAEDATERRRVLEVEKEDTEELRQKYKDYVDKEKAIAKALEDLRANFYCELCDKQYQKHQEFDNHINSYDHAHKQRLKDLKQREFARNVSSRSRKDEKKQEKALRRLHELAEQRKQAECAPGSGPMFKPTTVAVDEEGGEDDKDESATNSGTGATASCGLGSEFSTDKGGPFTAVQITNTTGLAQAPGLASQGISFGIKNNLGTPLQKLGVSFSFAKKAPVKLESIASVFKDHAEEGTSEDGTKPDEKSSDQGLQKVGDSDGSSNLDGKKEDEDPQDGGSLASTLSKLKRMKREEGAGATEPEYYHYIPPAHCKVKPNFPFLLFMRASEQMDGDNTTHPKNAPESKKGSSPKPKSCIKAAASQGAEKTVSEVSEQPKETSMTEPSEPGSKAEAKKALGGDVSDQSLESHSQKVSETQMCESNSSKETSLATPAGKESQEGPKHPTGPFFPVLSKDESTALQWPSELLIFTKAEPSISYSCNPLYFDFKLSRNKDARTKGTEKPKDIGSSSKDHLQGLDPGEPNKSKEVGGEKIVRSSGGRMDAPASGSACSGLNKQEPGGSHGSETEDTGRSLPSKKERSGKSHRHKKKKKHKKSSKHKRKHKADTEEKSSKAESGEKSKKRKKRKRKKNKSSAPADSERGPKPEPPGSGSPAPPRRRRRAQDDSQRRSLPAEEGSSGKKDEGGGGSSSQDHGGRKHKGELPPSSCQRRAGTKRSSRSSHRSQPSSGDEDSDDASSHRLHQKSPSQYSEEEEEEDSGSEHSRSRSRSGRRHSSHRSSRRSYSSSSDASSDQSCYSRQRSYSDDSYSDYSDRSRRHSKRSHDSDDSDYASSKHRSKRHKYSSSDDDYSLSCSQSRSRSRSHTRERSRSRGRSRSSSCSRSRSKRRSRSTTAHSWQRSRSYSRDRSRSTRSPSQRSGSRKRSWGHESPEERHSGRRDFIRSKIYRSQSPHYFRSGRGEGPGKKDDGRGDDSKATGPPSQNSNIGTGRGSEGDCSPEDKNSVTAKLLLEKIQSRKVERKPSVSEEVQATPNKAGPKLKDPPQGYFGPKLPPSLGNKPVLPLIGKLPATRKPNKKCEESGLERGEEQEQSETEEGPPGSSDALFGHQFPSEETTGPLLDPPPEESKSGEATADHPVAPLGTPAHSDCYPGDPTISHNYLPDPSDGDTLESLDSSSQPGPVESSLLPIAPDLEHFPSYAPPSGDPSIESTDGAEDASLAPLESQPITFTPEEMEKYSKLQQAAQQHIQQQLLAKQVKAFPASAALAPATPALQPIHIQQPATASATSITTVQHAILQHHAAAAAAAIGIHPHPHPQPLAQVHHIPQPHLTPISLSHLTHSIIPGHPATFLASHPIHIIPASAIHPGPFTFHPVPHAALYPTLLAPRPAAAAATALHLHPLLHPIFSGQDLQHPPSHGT
UniProt Q9UBS8: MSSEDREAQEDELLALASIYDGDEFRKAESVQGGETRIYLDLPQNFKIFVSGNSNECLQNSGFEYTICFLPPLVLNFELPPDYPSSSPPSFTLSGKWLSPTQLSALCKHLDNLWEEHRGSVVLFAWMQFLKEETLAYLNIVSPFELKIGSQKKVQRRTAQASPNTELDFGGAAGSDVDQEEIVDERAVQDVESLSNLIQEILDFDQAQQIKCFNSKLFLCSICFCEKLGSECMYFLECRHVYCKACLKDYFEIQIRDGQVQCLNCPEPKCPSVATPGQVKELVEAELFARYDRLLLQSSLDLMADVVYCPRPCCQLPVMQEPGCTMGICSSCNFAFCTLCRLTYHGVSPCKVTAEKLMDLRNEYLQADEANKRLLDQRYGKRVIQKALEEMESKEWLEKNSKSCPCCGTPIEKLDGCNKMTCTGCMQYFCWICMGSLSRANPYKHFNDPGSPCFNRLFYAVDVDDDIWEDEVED
UniProt Q9Y266: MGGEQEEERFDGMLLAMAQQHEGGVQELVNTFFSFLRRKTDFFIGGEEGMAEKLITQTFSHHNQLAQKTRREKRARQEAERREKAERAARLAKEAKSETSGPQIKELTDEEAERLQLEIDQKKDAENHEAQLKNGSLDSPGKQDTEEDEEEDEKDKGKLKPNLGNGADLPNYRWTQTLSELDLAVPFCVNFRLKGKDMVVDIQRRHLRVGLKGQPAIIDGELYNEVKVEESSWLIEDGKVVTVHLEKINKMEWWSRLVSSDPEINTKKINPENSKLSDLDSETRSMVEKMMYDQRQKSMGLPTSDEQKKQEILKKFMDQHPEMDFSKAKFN
UniProt Q9ULK4: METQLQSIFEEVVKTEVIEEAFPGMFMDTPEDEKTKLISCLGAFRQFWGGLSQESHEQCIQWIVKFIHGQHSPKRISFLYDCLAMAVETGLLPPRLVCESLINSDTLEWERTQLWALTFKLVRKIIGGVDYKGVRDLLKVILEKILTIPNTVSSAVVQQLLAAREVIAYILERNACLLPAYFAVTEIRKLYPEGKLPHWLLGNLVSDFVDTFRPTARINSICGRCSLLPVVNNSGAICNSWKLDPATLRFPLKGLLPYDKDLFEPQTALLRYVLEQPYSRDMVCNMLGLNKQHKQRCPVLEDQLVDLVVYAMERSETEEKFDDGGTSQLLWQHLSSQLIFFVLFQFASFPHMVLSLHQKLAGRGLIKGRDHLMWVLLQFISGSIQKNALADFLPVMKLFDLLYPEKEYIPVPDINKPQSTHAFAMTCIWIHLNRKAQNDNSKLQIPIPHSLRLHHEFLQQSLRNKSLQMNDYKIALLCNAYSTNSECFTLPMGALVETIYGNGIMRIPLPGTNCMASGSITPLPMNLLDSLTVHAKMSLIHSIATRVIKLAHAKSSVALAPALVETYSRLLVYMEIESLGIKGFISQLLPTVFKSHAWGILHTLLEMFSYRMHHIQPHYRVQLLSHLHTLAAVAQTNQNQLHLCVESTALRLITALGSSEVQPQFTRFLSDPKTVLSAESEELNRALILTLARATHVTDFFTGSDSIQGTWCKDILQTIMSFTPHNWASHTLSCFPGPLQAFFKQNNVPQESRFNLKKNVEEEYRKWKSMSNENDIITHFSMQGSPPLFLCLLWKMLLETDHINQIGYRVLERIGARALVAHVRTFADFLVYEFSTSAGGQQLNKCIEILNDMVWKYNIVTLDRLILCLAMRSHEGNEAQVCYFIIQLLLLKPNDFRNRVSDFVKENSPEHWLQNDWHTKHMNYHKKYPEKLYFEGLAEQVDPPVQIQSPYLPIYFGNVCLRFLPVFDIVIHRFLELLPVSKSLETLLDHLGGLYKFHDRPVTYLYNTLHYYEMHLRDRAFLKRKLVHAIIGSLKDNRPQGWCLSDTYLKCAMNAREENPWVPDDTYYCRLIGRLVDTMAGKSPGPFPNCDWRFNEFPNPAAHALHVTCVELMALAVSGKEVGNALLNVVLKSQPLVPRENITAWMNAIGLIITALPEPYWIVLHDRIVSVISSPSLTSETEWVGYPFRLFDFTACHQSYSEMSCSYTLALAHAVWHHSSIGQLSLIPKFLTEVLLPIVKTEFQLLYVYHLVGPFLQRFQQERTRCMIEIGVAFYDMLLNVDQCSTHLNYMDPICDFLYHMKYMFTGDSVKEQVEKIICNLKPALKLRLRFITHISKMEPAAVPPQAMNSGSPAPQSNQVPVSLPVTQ
UniProt Q9UBP6: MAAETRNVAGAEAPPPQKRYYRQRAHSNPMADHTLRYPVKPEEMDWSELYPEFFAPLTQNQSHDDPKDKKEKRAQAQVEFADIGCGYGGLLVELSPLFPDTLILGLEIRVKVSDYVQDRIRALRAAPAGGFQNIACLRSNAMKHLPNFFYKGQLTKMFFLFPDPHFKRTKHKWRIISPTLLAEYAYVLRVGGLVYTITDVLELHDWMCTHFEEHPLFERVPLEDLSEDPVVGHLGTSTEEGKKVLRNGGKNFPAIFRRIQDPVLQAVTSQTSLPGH
UniProt Q9UI12, whole entry: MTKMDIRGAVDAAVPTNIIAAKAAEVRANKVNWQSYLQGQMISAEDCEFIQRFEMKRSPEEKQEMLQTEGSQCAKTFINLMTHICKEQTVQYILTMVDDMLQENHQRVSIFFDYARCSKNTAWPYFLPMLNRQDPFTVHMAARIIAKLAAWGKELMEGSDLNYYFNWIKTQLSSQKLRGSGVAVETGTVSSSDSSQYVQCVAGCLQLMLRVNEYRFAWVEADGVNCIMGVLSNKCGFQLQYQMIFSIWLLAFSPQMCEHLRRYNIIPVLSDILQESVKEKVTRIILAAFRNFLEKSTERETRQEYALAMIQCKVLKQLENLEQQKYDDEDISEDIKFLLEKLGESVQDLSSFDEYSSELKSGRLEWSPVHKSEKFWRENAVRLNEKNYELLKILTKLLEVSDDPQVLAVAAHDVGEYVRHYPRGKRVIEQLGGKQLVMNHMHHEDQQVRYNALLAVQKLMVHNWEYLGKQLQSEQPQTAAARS
UniProt Q9UDW3: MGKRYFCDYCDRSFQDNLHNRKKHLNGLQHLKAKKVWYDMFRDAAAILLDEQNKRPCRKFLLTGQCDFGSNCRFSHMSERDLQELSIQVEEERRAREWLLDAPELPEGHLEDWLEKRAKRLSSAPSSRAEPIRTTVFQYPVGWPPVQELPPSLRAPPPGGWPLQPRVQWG

Compound: Nc1ncnc2c1ncn2[C@@H]1O[C@H](COP(=O)(O)OP(=O)(O)OP(=O)(O)O)[C@@H](O)[C@H]1O [adenosine triphosphate]
Assay: NP40-soluble protein abundance relative to vehicle (solubility fold change) (ratio); higher = more soluble protein in presence of ATP
Details: concentration: 0.1mM
Procedure, shortened: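 Crude Jurkat lysate, prepared by Dounce homogenisation, was exposed to eight concentrations from 0.1 to 10 mM for 10 min at room temperature and then 3 min at 37 °C. Solubilisation used 0.8% NP40 with benzonase for 60 min at 4 °C, followed by ultracentrifugation and TMT labelling of the supernatant for LC-MS/MS. After vsn normalisation of intensities, each value is the fold change against the detergent-processed vehicle within each replicate, across three independent experiments.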

Target	NP40-soluble protein abundance
FARSA (UniProt Q9Y285)	1.01 ± 0.053
ANAPC7 (UniProt Q9UJX3)	0.983 ± 0.033
UniProt Q9UH03 and related entries	0.998 ± 0.033
UniProt Q9UBU8-2	1.01 ± 0.036
UniProt Q9UHP3 and related entries	0.941 ± 0.083
UniProt Q9UH99	1.13 ± 0.027
UniProt Q9UER7 and related entries	0.959 ± 0.057
NDUFA12 (UniProt Q9UI09)	0.953 ± 0.072
UniProt Q9UBH6 and related entries	0.9954 ± 0.0056
COPS7A (UniProt Q9UBW8)	0.995 ± 0.04
UniProt Q9P260 and related entries	1.01 ± 0.034
AK3 (UniProt Q9UIJ7)	0.93 ± 0.019
UniProt Q9ULC4 and related entries	1 ± 0.039
GINS2 (UniProt Q9Y248)	0.945 ± 0.047
PPIE (UniProt Q9UNP9)	1.006 ± 0.01
CFL2 (UniProt Q9Y281)	0.939 ± 0.034
GGA2 (UniProt Q9UJY4)	1 ± 0.041
Q9UBK7-2|Q9UNT1-2 (UniProt Q9UNT1+Q9UBK7)	0.991 ± 0.046
UniProt Q9P287 and related entries	0.976 ± 0.033

Given in CSV form: part of the list above.
Target,NP40-soluble protein abundance
ANAPC7 (UniProt Q9UJX3),0.983 ± 0.033
UniProt Q9UHP3 and related entries,0.941 ± 0.083
UniProt Q9UH99,1.13 ± 0.027
UniProt Q9UER7 and related entries,0.959 ± 0.057
COPS7A (UniProt Q9UBW8),0.995 ± 0.04
UniProt Q9P260 and related entries,1.01 ± 0.034
UniProt Q9ULC4 and related entries,1 ± 0.039
PPIE (UniProt Q9UNP9),1.006 ± 0.01
GGA2 (UniProt Q9UJY4),1 ± 0.041
Q9UBK7-2|Q9UNT1-2 (UniProt Q9UNT1+Q9UBK7),0.991 ± 0.046

Next results.

Target	NP40-soluble protein abundance
UniProt Q9UGN5-2	0.978 ± 0.063
GPATCH8 (UniProt Q9UKJ3)	1.07 ± 0.027
UniProt Q9UKZ1	1.02 ± 0.028
UniProt Q9UBS8 and related entries	1.05 ± 0.073
UniProt Q9UJX6 and related entries	1.03 ± 0.045
CPSF2 (UniProt Q9P2I0)	0.991 ± 0.018
NUDC (UniProt Q9Y266)	0.959 ± 0.013
UniProt Q9ULK4 and related entries	1.04 ± 0.053
UniProt Q9UK76	0.929 ± 0.065
METTL1 (UniProt Q9UBP6)	0.995 ± 0.057
ZC3H4 (UniProt Q9UPT8)	0.983 ± 0.021
UniProt Q9UKV8	1.06 ± 0.051
CTTNBP2NL (UniProt Q9P2B4)	0.998 ± 0.034
UXT (UniProt Q9UBK9)	0.941 ± 0.082
UniProt Q9UET6 and related entries	1.05 ± 0.03
UniProt Q9UI12 and related entries	1.01 ± 0.032
UniProt Q9UPP1 and related entries	1.02 ± 0.037
ZMAT5 (UniProt Q9UDW3)	0.984 ± 0.16
UniProt Q9UKW4 and related entries	1.06 ± 0.096
